The target in assay [1] is T1, endogenous TOPORS of hTERT-RPE1 cells (human (endogenous in hTERT-RPE1)) (UniProt Q9NS56).
T1 sequence: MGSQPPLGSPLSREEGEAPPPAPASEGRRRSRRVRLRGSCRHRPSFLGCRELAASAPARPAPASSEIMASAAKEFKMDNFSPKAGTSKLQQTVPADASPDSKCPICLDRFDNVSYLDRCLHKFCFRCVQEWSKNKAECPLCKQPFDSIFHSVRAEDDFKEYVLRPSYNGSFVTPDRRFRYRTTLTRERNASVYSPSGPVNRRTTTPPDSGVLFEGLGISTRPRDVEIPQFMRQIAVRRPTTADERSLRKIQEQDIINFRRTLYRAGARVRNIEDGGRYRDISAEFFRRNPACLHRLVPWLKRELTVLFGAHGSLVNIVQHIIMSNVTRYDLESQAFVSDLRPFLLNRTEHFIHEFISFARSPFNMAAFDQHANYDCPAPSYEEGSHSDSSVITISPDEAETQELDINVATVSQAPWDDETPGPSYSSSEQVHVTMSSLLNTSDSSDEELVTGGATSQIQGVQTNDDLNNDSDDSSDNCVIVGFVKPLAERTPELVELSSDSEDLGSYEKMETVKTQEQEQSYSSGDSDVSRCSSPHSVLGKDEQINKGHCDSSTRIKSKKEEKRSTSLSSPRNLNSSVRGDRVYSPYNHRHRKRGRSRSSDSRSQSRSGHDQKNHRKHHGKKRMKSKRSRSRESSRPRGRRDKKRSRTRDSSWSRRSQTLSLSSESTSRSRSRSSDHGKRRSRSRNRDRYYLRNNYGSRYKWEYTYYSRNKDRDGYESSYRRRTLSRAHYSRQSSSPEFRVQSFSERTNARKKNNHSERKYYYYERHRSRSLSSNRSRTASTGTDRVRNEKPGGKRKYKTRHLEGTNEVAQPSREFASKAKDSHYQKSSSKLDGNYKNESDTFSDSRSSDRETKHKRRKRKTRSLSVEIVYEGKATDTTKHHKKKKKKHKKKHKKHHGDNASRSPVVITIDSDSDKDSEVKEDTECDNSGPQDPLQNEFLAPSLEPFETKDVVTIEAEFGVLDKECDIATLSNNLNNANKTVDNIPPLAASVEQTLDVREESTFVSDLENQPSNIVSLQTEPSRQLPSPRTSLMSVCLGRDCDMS
Put plainly: co-IP; endogenous proteins; mouse monoclonal anti-TOPORS on Protein G magnetic beads, lysates of hTERT-RPE1 or 661W cells in RIPA buffer, one hour at room temperature; Western blot for P26s4. (A western blot detects proteins with antibodies after separation by electrophoresis.)

Sequences of proteins named here, by UniProt entry; tags and fusion partners are left off.
UniProt P62191: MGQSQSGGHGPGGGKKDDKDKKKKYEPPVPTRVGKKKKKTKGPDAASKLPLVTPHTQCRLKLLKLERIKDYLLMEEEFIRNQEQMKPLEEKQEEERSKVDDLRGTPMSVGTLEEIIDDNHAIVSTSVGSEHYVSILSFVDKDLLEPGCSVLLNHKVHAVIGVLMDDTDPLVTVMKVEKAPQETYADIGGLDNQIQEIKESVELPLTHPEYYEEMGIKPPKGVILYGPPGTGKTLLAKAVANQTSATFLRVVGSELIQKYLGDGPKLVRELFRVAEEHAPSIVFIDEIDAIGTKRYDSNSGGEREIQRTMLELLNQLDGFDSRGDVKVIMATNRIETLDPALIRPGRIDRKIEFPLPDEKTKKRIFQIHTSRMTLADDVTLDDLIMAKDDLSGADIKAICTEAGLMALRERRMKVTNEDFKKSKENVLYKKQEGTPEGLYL

The target in assay [2] is T2, M-TOPORS (residues 373-781), pGBKT7-M-TOPORS (human) (UniProt Q9NS56).
T2 sequence: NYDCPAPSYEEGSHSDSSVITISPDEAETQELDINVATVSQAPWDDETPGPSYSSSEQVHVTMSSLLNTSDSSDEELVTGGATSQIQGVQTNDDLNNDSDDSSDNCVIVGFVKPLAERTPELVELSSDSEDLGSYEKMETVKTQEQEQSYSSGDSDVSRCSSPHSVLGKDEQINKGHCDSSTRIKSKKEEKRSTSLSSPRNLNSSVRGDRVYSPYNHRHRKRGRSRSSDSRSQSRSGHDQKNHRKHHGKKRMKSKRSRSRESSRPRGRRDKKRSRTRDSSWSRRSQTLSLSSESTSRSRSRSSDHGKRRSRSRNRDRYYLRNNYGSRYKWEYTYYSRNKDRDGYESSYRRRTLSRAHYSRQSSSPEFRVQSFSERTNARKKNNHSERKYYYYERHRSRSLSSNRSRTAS
Put plainly: two-hybrid; direct test of pAD-PSMC1 against pBD-TOPORS or pGBKT7-N-, M-, C-TOPORS; media D (two reporter genes) and Q (four reporter genes); six experiments, four or more positives read as positive. (In general: A reporter such as luciferase makes a cellular process visible.)

The target in assay [3] is T3, N-TOPORS (residues 1-380), pGBKT7-N-TOPORS (human) (UniProt Q9NS56).
T3 sequence: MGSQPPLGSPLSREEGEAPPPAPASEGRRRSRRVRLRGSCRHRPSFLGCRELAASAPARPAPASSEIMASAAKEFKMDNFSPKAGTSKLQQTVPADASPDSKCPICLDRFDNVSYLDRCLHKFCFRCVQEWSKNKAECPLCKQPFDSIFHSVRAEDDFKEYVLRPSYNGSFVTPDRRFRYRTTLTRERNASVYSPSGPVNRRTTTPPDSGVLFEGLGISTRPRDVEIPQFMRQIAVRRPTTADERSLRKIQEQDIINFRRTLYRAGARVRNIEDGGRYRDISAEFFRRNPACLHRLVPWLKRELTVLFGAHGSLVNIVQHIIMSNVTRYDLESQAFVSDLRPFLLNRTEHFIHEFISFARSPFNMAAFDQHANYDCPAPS
The assay is described as above.

In assay [4] the target is T4, C-TOPORS (residues 705-1045), pGBKT7-C-TOPORS (human) (UniProt Q9NS56).
T4 sequence: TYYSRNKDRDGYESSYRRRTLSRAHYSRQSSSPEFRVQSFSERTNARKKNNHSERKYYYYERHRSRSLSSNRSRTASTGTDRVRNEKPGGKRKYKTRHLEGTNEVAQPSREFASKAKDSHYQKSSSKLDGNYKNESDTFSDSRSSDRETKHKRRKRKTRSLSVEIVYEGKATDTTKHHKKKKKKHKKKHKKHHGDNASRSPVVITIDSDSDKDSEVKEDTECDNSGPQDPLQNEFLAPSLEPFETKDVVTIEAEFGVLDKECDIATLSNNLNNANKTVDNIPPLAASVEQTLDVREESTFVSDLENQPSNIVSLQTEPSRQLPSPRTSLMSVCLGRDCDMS
Described as above.

The target in assay [5] is T5, GAL4 DNA binding domain (BD) fused with full-length TOPORS (pBD-TOPORS) (human) (UniProt Q9NS56).
T5 sequence: T1 sequence
The assay is described as above.

No constants are given. Whether binding was seen depends on the method and setting. For some assays here: Binding seen in cells or lysates may run through a third protein. Some results given as binding are weak or reduced against the parent protein; the word gives no strength. For some assays here: Sequences can lack the tags named with a protein.

Turning to “endogenous P26s4 of hTERT-RPE1 cells, band of approximately 60 kDa (from UniProt P62191 1-440)”, in assay [1], the binding result was “binds”.

As for “full-length P26s4 fused with the GAL4 activation domain (pAD-PSMC1) (from UniProt P62191 1-440)”, the binding result in assay [2] is recorded as “binds”; in assay [3], “binds weakly”; in assay [4] it was “binds”; in assay [5] it was “binds”.

These data come from publication PMC4752349.
